Measurements published in PMC6753678, “Fueling Open Innovation for Malaria Transmission-Blocking Drugs: Hundreds of Molecules Targeting Early Parasite Mosquito Stages” (Frontiers in Microbiology, 2019).

Test system: P. berghei ookinete development
[1] = unified cytotox / IC50, <10-fold red, >10-fold green

Row | SMILES | Assay tox ratio Pb ODA | other results
1 | O=C(Nc1ccccc1)Nc1ccc(-n2ccc(C(F)(F)F)n2)cc1 [TCMDC-123480] | 52.73 | 
2 | O=C(NCC1CCCCC1)c1cc(=O)c2ccccc2o1 [TCMDC-123621] | 96.17 | 
3 | CC(=O)Nc1cccc(Nc2c3ccccc3nc3ccccc23)c1 [TCMDC-123741] | 17.92 | 
4 | CSc1ccc(C=CC(=O)NC(=O)c2ccccc2O)cc1 [TCMDC-123758] | 139.25 | 
5 | Cn1nc(C(F)(F)F)c(-c2ccc(Br)cc2)c1NC(=O)Cc1ccccc1F [TCMDC-123792] |  | Assay tox ratio Pb ODA [1]: 47.09
6 | Cc1cc(C(=O)OCC(=O)Nc2c(C)n(C)n(-c3ccccc3)c2=O)c(C)n1-c1ccc(F)cc1 [TCMDC-123794] | 92.88 | 
7 | Cc1nc(/N=C(\N)NC(=O)NC2CCCCC2)nc2ccccc12 [TCMDC-123808] |  | Assay tox ratio Pb ODA (red: <10-fold selectivity; green: >10-fold): 32.79
8 | Cc1cc(NC(c2ccc(Cl)cc2)c2ccc3cccnc3c2O)no1 (stereo not drawn) [TCMDC-123828] | 0.46 | 
9 | Cc1sc2ncnc(Sc3nc4ccccc4[nH]3)c2c1C [TCMDC-123835] | 108.87 | 
10 | CCOC(=O)c1c[nH]c2c(ccc3ccccc32)c1=O [TCMDC-123857] | 177.95 | 
11 | Cc1ccc(C2=NNC3(S2)C(=O)N(C)c2ccccc23)cc1 (stereo not drawn) [TCMDC-123863] | 23.32 | 
12 | O=C(c1cccs1)N1CCN(c2ccc([N+](=O)[O-])c(NC3CC3)c2)CC1 [TCMDC-123877] | 58.89 | 
13 | Br.CC(CCON1C(N)=NC(N)=NC1(C)C)c1ccc(Cl)c(Cl)c1 (stereo not drawn) [TCMDC-123922] |  | Assay tox ratio Pb ODA [1]: 0.000174
14 | O=c1c2ccccc2[nH]c2cc(Cl)ccc12 [TCMDC-123989] | 43.00 | 
15 | Cc1ccnc(NC(c2cccc(Cl)c2Cl)c2ccc3cccnc3c2O)c1 (stereo not drawn) [TCMDC-123997] |  | Assay tox ratio Pb ODA [1]: 6.94
16 | CCOC(=O)C(=O)N1c2ccc(OCC)cc2-c2c(ssc2=S)C1(C)C [TCMDC-124090] | 49.72 | 
17 | CC(C)c1nc(N2CCN(C(=S)NCc3ccccc3)CC2)c(C#N)c2c1COC(C)(C)C2 [TCMDC-124093] | 0.00223 | 
18 | Cc1cc(C)cc(-n2c(C)cc(/C=C3\SC(=Nc4ccc(Cl)cc4)NC3=O)c2C)c1 [TCMDC-124103] | 178.36 | 
19 | CCOC(=O)c1c(CN2CCCC2)n(-c2ccccc2)c2cc(Br)c(O)cc12 [TCMDC-124122] | 9.23 | 
20 | Cc1ccc(Nc2nc(N/N=C/c3cccc(O)c3)nc(Nc3ccc([N+](=O)[O-])cc3)n2)cc1C [TCMDC-124125] | 26.12 | 
21 | COc1ccc2nc3cc(Cl)ccc3c(NCCCO)c2c1 [TCMDC-124144] |  | Assay tox ratio Pb ODA (red: <10-fold selectivity; green: >10-fold): 5.45
22 | CC(C)CN1CCN(c2nc(C#N)c3c(c2C(=S)NC2CCCCC2)CC(C)(C)OC3)CC1 [TCMDC-124173] | 20.46 | 
23 | COc1ccc(C=NNc2nc(O)cc(-c3ccccc3)n2)cc1OC [TCMDC-124217] | 117.12 | 
24 | COc1cc(OC)nc(C(Sc2ccc(NC(=O)c3cccs3)cc2)c2ccccc2)n1 (stereo not drawn) [TCMDC-124257] | 102.76 | 
25 | COc1ccc2nc3cc(Cl)ccc3c(NCCO)c2c1.Cl [TCMDC-124272] |  | Assay tox ratio Pb ODA (red: <10-fold selectivity; green: >10-fold): 18.59
26 | Cc1ccc2[nH]c(C)c(Br)c(=O)c2c1 [TCMDC-124347] | 40.76 | 

Row | SMILES | Assay tox ratio Pb ODA | other results
27 | CC(=O)Nc1ccc(Nc2c3ccccc3nc3ccccc23)cc1 [TCMDC-124356] | 23.64 | 
28 | CCn1c(C)cc(C=C2SC(=Nc3ccccc3)NC2=O)c1C [TCMDC-124456] | 96.79 | 
29 | COc1ccc(C=C2SC(=N)N(c3ccccc3OC)C2=O)cc1 [TCMDC-124486] | 35.98 | 
30 | Cn1c(Sc2ncnc3sccc23)nc2ccccc21 [TCMDC-124514] |  | Assay tox ratio Pb ODA [1]: 252.18
31 | Cc1cc2nc(/N=C(\N)NC(=O)NC3CCCCC3)nc(C)c2cc1C [TCMDC-124528] |  | Assay tox ratio Pb ODA (red: <10-fold selectivity; green: >10-fold): 10.06
32 | CCc1cc2c(Sc3nc4ccccc4[nH]3)ncnc2s1 [TCMDC-124553] | 100.17 | 
33 | Cc1ccc2nc(/N=C(\N)NC(=O)NC3CCCCC3)nc(C)c2c1 [TCMDC-124557] |  | Assay tox ratio Pb ODA (red: <10-fold selectivity; green: >10-fold): 32.94
34 | c1ccc(CCNc2ncnc3c2[nH]c2ccccc23)cc1 [TCMDC-124578] | 28.82 | 
35 | O=C(c1cc(-c2cccs2)[nH]n1)N1CCN(S(=O)(=O)c2ccc(Cl)cc2)CC1 [TCMDC-124702] |  | Assay tox ratio Pb ODA (red: <10-fold selectivity; green: >10-fold): 9.71
36 | CCn1c(CN2CCC(C)CC2)nc2cc(NC(=O)c3cccs3)ccc21 [TCMDC-124730] | 216.50 | 
37 | COc1cc(OC)c(NC(=O)C2c3ccccc3C(=O)N(CC(C)C)C2c2cccs2)cc1Cl (stereo not drawn) [TCMDC-124760] | 11.62 | 
38 | Cc1ccc(C)c(CC(=O)N2CCC(n3c(C)nc4ccc(F)cc43)CC2)c1 [TCMDC-124790] |  | Assay tox ratio Pb ODA [1]: 15.71
39 | COc1cccc(CC(=O)N2CCC(n3c(C)nc4ccc(C)cc43)CC2)c1 [TCMDC-124791] |  | Assay tox ratio Pb ODA [1]: 89.57
40 | COc1cccc(CC(=O)N2CCC(n3c(C)nc4ccc(F)cc43)CC2)c1 [TCMDC-124792] | 125.96 | 
41 | Cl.O=C(NC1CCN(CC2(c3ccc(Cl)cc3)CCCCC2)CC1)c1cc[nH]n1 [TCMDC-124828] |  | Assay tox ratio Pb ODA (red: <10-fold selectivity; green: >10-fold): 22.13
42 | Cc1cc(C(=O)NC2CCN(CC3(c4ccccc4)CCCCC3)CC2)on1 [TCMDC-124832] | 22.01 | 
43 | COc1coc(C(=O)NC2CCN(CC3(c4ccc(Cl)cc4)CCC3)CC2)c1OC [TCMDC-124835] | 58.39 | 
44 | O=C(NC1CCN(CC2(c3ccccc3F)CCCC2)CC1)c1ccn[nH]1 [TCMDC-124837] |  | Assay tox ratio Pb ODA (red: <10-fold selectivity; green: >10-fold): 28.05
45 | Cc1ccc(C2(CN3CCC(NC(=O)c4[nH]ncc4Cl)CC3)CCCCC2)cc1 [TCMDC-124838] |  | Assay tox ratio Pb ODA (red: <10-fold selectivity; green: >10-fold): 18.99
46 | Cc1ccc(C2(CN3CCC(NC(=O)c4ccn[nH]4)CC3)CCCCC2)cc1 [TCMDC-124839] |  | Assay tox ratio Pb ODA (red: <10-fold selectivity; green: >10-fold): 44.59
47 | COc1ccc(NS(=O)(=O)c2cc(NC(=O)Cn3ccccc3=O)ccc2N2CCCCC2)cc1 [TCMDC-124874] | 78.49 | 
48 | CCc1c(C)nc(-n2nc(C)cc2NC(=O)C(CC)c2ccccc2)[nH]c1=O (stereo not drawn) [TCMDC-124935] |  | Assay tox ratio Pb ODA (red: <10-fold selectivity; green: >10-fold): 0.11
49 | CCc1c(C)nc(-n2nc(C)cc2NC(=O)c2ccc(OC)cc2OC)[nH]c1=O [TCMDC-124937] |  | Assay tox ratio Pb ODA (red: <10-fold selectivity; green: >10-fold): 6.63
50 | Cc1cc(=O)[nH]c(-n2nc(C)cc2NC(=O)C2(c3ccc(Cl)cc3)CCCC2)n1 [TCMDC-124943] |  | Assay tox ratio Pb ODA (red: <10-fold selectivity; green: >10-fold): 2.40
51 | Cc1ccccc1-c1cc(=O)c2cc(NC(=O)c3cccs3)ccc2o1 [TCMDC-124947] | 24.09 | 
52 | CCN(CC)c1nc(N)c2c(N)nc3c(c2c1C#N)C(=O)CN3Cc1ccccc1 [TCMDC-125024] | 161.75 | 

Row | SMILES | Assay tox ratio Pb ODA | other results
53 | Cc1cc(C2NC(=O)c3ccccc3N2)c(C)n1-c1ccc2c(c1)OCO2 (stereo not drawn) [TCMDC-125051] | 4.06 | 
54 | Cc1[nH]c2ccccc2c1C(=O)C(C)Sc1n[nH]c(-c2ccccc2Br)n1 (stereo not drawn) [TCMDC-125114] |  | Assay tox ratio Pb ODA [1]: 429.88
55 | COc1cccc(NC(=O)[C@H](C(C)C)n2c(=O)[nH]c3ccccc3c2=O)c1 [TCMDC-125133] |  | Assay tox ratio Pb ODA [1]: 65.35
56 | CCOC(=O)C1=C(C)NC2=C(C(=O)C(C(=O)OC)C(C)C2)C1c1cc(Br)c(OCC)c(OC)c1 (stereo not drawn) [TCMDC-125139] | 11.03 | 
57 | COc1cc(Nc2ccc3cc(S(=O)(=O)N4CCCCC4C)ccc3n2)cc(OC)c1OC (stereo not drawn) [TCMDC-125163] | 23.19 | 
58 | CCOc1cccc(C(=O)Nc2nonc2-c2ccc(OC)c(OC)c2)c1 [TCMDC-125179] | 0.89 | 
59 | CCOc1ccc(-c2nonc2NC(=O)c2cccc(Cl)c2)cc1OCC [TCMDC-125200] |  | Assay tox ratio Pb ODA [1]: 3.13
60 | Cc1ccc(-n2c(Sc3ncnc4sccc34)nnc2N2CCCC2)cc1 [TCMDC-125247] |  | Assay tox ratio Pb ODA [1]: 368.36
61 | Cc1[nH]c2ccccc2c1C(=O)C(C)Sc1nnc(-c2ccccc2F)o1 (stereo not drawn) [TCMDC-125312] | 22.30 | 
62 | CN(C)c1ccc(C=CC(=O)NC(=O)c2ccccc2O)cc1 [TCMDC-125391] | 475.96 | 
63 | O=C(c1ccco1)N1CCN(c2ccc([N+](=O)[O-])c(NC3CC3)c2)CC1 [TCMDC-125397] | 1.76 | 
64 | O=C(Nc1nc(-c2ccccn2)cs1)c1ccc(S(=O)(=O)N2CCc3ccccc32)cc1 [TCMDC-125432] |  | Assay tox ratio Pb ODA [1]: 6.96
65 | Cc1ccc(Cn2c(N3CCC(C(=O)NCc4ccccn4)CC3)nc3ccccc32)cc1 [TCMDC-125442] | 58.52 | 
66 | COc1ccc(Cl)cc1NC(=O)CN(C)C(=O)c1cnn(-c2ccccc2)n1 [TCMDC-125457] | 19.57 | 
67 | COc1ccc(C[C@H]2NC[C@H](O)[C@H]2OC(C)=O)cc1 [TCMDC-125504] |  | Assay tox ratio Pb ODA [1]: 5.78
68 | CCN(CC)CCCNc1c2ccccc2nc2ccccc12.Cl [TCMDC-125517] |  | Assay tox ratio Pb ODA [1]: 11.27
69 | Cc1c2ccncc2c(C)c2c1[nH]c1ccccc12 [TCMDC-125546] | 2.87 | 
70 | Oc1c(C(Nc2nc3ccccc3s2)c2ccccc2)ccc2cccnc12 (stereo not drawn) [TCMDC-125565] |  | Assay tox ratio Pb ODA [1]: 0.59
71 | CCCC(N)C(=O)NC1CCN(c2c(F)c(N)c3c(=O)c(C(=O)O)cn4c3c2Oc2ccccc2-4)C1.Cl (stereo not drawn) [TCMDC-125701] |  | Assay tox ratio Pb ODA [1]: 2.91
72 | CCn1cc(C(=O)O)c(=O)c2cc(F)c(N3CCN(S(=O)(=O)c4ccc(N)cc4)CC3)cc21 [TCMDC-125809] | 102.29 | 
73 | COc1ccc2nc3cc(Cl)ccc3c(N)c2c1.Cl [TCMDC-125835] |  | Assay tox ratio Pb ODA [1]: 0.61
74 | C[C@@H]1C[C@@H]([C@H](O)CC2CC(=O)NC(=O)C2)C(=O)[C@@H](C)C1 [TCMDC-125838] | 915.12 | 
75 | O=C(NC(=O)c1ccccc1O)c1ccccc1O [TCMDC-125868] | 217.52 | 
76 | COc1ccc2nccc(NC(=O)C3CCC(NCc4cnc(SC)c([N+](=O)[O-])c4)CC3)c2n1.Cl (stereo not drawn) [TCMDC-131238] |  | Assay tox ratio Pb ODA (red: <10-fold selectivity; green: >10-fold): 6.08
77 | Br.CCCc1cc(C)ccc1OCCCON1C(N)=NC(N)=NC1(C)C [TCMDC-131320] |  | Assay tox ratio Pb ODA [1]: 0.000333
78 | C=CCc1cc(OC)ccc1OCCCOc1c(C)nc(N)nc1N.Cl [TCMDC-131358] | 0.11 | 

Read-outs that look alike come from different tables or passages of the source.
